Test results as given in the supplement of paper PMC10849652.
Some of the results follow.

The chains behind the UniProt entries cited, without tags or fusion partners. Where a name states a change or a piece, a line headed by the entry shows the natural chain unless it says otherwise.
UniProt O75629: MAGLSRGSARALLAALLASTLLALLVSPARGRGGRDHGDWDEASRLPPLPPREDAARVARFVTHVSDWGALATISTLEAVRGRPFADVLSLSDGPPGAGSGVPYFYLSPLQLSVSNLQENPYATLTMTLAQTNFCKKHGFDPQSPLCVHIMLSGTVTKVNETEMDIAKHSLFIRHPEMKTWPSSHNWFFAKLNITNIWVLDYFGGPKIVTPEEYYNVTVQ
UniProt Q5JQC4: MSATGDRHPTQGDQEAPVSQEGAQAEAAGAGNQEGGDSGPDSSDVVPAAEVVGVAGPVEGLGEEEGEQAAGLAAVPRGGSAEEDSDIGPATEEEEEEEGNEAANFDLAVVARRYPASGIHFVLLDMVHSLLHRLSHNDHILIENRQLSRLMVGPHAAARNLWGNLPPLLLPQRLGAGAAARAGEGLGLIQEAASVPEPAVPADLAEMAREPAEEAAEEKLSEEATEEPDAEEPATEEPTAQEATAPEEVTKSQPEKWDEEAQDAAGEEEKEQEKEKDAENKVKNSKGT
UniProt Q01459: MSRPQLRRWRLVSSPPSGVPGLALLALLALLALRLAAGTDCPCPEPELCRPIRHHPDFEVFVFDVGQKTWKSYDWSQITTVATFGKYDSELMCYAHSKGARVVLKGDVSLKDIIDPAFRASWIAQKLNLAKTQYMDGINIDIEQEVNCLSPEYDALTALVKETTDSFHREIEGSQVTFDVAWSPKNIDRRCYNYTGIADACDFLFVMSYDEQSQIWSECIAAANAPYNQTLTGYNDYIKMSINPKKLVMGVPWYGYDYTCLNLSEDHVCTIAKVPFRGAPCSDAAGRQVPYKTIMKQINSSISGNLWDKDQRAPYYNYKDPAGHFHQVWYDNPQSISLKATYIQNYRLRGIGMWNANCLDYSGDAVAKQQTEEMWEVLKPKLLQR
UniProt Q8NBI2: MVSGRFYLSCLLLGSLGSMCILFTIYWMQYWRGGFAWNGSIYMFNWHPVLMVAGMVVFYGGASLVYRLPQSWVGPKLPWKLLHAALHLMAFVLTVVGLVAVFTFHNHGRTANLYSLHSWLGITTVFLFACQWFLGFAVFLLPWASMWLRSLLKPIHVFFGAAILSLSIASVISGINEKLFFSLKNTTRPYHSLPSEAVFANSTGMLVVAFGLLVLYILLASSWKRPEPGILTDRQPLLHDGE
UniProt Q13617, whole entry, looked up: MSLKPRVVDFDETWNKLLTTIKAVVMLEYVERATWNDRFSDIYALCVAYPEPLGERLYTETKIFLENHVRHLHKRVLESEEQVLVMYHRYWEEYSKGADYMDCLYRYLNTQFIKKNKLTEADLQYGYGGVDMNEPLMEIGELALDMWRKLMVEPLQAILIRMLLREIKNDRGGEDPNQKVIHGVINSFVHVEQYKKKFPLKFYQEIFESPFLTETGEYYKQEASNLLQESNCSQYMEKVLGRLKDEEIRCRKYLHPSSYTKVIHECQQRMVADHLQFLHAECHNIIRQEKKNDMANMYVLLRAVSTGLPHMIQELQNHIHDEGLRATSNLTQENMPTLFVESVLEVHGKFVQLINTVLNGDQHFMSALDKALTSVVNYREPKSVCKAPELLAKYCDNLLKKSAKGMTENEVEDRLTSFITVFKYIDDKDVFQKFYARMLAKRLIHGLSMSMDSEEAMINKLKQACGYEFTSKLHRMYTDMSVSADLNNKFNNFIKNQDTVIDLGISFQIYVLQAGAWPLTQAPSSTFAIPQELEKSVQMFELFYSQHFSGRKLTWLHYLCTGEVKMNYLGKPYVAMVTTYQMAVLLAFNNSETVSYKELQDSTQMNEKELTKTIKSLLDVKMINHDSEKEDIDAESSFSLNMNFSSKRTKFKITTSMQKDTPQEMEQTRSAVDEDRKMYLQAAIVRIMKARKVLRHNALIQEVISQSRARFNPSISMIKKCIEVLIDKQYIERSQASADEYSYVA
UniProt Q08257: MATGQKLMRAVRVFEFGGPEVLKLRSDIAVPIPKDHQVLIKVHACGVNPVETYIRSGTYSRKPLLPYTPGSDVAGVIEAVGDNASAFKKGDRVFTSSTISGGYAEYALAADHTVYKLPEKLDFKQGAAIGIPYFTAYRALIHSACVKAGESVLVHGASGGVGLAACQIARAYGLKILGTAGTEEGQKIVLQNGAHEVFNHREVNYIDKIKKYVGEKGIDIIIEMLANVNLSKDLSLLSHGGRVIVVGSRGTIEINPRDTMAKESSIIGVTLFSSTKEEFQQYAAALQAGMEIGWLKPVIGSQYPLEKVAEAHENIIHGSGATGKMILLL
UniProt O95825: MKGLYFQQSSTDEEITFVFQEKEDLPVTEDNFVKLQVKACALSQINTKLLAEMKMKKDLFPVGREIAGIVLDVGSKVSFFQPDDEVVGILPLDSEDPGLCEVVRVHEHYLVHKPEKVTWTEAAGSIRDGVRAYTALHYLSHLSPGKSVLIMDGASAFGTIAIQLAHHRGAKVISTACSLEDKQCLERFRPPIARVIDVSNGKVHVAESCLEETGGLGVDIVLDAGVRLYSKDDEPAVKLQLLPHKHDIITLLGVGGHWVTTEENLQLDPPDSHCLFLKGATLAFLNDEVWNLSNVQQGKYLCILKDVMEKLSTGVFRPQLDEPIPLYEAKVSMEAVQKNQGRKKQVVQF
UniProt Q1MSJ5: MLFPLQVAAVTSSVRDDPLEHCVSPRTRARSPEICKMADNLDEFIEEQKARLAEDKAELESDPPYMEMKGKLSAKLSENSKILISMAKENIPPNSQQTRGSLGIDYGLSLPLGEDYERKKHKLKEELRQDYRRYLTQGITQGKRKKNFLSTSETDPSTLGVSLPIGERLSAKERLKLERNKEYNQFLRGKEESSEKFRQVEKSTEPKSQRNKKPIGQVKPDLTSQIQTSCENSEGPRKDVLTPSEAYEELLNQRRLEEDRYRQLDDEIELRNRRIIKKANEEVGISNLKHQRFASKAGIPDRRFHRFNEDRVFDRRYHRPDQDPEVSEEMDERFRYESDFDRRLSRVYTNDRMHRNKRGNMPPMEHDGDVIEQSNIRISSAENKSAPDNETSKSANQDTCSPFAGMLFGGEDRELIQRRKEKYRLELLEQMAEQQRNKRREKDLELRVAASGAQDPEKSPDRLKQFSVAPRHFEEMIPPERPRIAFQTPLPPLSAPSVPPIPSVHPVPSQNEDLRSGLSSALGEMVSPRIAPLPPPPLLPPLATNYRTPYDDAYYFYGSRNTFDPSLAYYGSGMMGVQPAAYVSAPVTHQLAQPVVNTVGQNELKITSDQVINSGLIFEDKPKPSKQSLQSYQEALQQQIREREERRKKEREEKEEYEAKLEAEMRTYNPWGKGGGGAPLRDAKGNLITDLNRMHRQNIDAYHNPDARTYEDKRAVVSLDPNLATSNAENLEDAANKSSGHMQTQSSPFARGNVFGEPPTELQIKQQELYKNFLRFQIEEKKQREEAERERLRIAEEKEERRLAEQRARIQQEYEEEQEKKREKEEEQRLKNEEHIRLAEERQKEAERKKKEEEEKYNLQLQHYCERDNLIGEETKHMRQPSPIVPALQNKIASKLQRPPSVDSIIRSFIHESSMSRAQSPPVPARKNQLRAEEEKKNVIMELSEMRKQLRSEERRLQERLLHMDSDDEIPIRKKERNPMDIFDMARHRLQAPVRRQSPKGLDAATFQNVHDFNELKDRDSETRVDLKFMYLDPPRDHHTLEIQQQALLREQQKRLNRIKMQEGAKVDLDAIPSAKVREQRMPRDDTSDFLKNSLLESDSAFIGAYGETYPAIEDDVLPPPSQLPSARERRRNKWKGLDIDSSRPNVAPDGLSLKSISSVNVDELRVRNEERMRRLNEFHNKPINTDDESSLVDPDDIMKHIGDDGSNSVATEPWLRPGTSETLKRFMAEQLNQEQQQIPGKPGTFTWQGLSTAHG
UniProt P00387: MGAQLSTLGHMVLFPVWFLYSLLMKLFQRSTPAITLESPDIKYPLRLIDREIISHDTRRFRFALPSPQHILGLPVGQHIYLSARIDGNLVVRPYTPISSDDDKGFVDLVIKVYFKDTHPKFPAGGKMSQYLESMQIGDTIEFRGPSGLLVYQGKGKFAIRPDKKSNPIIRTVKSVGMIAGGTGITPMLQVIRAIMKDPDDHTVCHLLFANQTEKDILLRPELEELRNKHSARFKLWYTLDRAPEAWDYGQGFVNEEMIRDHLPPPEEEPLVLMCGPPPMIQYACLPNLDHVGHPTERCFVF
UniProt Q53ET0: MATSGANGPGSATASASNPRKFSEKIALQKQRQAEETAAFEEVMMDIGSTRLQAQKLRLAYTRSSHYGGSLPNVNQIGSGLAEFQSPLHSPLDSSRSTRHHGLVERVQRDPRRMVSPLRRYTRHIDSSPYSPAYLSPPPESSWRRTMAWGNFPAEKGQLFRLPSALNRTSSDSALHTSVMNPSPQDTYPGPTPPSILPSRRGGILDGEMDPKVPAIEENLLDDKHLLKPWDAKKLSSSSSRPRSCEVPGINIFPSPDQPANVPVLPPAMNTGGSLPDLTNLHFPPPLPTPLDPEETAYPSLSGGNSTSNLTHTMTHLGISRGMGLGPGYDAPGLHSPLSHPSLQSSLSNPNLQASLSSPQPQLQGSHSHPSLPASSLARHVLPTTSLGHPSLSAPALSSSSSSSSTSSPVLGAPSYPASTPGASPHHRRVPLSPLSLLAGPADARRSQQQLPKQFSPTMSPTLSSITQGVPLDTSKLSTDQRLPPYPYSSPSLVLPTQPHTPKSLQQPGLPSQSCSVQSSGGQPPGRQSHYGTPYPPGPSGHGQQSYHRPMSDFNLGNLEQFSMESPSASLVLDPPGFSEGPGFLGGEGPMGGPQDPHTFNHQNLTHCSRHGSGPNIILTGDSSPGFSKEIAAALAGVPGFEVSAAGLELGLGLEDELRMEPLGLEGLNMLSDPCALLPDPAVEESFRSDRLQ
UniProt Q14247: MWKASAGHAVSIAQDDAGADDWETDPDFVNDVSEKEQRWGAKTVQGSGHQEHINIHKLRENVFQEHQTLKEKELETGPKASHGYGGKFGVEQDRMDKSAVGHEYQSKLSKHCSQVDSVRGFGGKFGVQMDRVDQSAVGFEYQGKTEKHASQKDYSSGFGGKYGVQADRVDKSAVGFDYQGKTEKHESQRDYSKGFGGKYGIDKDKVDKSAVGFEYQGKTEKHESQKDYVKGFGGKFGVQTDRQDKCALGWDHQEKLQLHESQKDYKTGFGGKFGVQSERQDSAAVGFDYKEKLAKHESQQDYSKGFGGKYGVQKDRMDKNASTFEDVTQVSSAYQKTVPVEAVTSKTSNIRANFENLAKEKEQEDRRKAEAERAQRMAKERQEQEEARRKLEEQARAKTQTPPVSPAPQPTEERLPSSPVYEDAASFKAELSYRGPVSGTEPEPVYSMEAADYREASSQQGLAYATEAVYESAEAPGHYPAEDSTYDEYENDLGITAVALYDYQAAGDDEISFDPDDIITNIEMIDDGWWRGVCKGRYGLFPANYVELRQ
UniProt O75534: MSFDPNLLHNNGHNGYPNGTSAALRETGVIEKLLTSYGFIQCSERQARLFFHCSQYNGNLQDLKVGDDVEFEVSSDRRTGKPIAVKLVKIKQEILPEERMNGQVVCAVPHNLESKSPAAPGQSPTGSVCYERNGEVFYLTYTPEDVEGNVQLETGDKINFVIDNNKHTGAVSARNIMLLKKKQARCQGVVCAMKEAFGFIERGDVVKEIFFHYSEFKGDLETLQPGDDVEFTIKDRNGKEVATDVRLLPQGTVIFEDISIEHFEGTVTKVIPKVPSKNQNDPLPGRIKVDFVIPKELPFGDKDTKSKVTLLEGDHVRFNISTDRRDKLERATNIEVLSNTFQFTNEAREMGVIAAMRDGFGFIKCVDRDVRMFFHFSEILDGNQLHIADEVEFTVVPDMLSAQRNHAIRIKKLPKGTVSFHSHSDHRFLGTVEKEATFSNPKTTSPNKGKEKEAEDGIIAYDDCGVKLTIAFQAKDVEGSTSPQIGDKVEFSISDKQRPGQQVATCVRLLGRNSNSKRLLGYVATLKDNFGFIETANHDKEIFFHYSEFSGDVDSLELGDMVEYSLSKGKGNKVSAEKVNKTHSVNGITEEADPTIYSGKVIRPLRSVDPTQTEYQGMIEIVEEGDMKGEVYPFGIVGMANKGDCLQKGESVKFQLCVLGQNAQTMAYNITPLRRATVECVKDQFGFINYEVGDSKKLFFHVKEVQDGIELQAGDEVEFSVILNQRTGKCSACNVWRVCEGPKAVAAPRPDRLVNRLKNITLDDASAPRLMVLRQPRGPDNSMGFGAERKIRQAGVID
UniProt P32929, whole entry, looked up: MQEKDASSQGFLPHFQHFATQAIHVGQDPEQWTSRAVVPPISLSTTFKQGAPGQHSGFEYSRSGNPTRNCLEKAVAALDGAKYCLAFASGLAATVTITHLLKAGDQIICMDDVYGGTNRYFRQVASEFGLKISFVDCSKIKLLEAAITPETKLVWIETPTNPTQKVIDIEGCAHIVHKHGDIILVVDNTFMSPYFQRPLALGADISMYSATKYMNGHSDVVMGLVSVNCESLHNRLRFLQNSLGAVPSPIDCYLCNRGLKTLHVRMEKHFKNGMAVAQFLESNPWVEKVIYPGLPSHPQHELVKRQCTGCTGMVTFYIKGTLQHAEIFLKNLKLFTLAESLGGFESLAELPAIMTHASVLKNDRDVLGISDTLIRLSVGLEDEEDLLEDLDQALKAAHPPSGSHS

What was measured:
Test in all cases: log2 fold change, soluble protein after heating vs DMSO (PISA); higher = thermal stabilisation; K562 lysate, 10 uM; active = over 0.2 and 3.5 SD of the protein, either way, in both replicates (recomputed)
[1] = compound: CN1CC[C@H](c2c(O)cc(O)c3c(=O)cc(-c4ccccc4Cl)oc23)[C@H](O)C1 [alvocidib]
How it was run: (§1)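 To prepare the extract, K562 pellets were dounce-homogenised in PBS pH 7.4 with 1 mM MgCl2, giving crude material at 1 mg/mL protein. This was treated with 10 μM compound for 30 min, then heated in aliquots for 3 min over 48°C-58°C before pooling and addition of NP-40 to 0.5% at 4°C. Centrifugation at 21,000xg for 90 min left soluble protein in the supernatant, which TMTpro 16plex LC-MS/MS quantified with equalised channel sums. Results are log-two fold changes in thermal stability compared with solvent controls, from duplicates.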

[2] = compound: CN1CCc2c(c3ccccc3n2Cc2ccc(C(=O)NO)cc2)C1 [Tubastatin A]
How it was run: as §1

[3] = compound: CNC(=O)C1=CC=CC=C1NC2=NC(=NC=C2Cl)NC3=C(C=C(C=C3)N4CCOCC4)OC
How it was run: as §1

[4] = compound: CNC(=O)c1ccc(Nc2ncc(C(F)(F)F)c(NCc3nccnc3N(C)S(C)(=O)=O)n2)cc1 [defactinib]
How it was run: as §1

[5] = compound: CNc1nc(-c2ccc3c(N)n[nH]c3c2)cc(N2C[C@@H](C(=O)NC3CCCCC3)CC[C@H]2C)n1
How it was run: as §1

[6] = compound: COC(=O)N[C@@H](C)CNc1nccc(-c2cn(C(C)C)nc2-c2cc(Cl)cc(NS(C)(=O)=O)c2F)n1 [encorafenib]
How it was run: as §1

[7] = compound: COC(=O)[C@H](CCSC)NC(=O)C1=C(C=C(C=C1)NC[C@H](CS)N)C2=CC=CC=C2
How it was run: as §1

[8] = compound: COc1cc(Nc2ncc3c(n2)-c2ccc(Cl)cc2C(c2c(F)cccc2OC)=NC3)ccc1C(=O)O [alisertib]
How it was run: as §1

[9] = compound: COc1cc2nc(-c3cc(F)ccc3O)nc(N[C@@H]3CNC[C@H]3C(C)(C)O)c2cc1OC
How it was run: as §1

[10] = compound: COc1cc2ncnc(Nc3ccc(F)c(Cl)c3)c2cc1OCCCN1CCOCC1 [gefitinib]
How it was run: as §1

[11] = compound: CS(=O)(=O)CCNCc1ccc(-c2ccc3ncnc(Nc4ccc(OCc5cccc(F)c5)c(Cl)c4)c3c2)o1 [lapatinib]
How it was run: as §1

[12] = compound: CS(=O)(=O)N1CCN(Cc2cc3nc(-c4cccc5[nH]ncc45)nc(N4CCOCC4)c3s2)CC1 [pictilisib]
How it was run: as §1

[13] = compound: C[C@@H](Oc1cc(-c2cnn(C3CCNCC3)c2)cnc1N)c1c(Cl)ccc(F)c1Cl [crizotinib]
How it was run: as §1

[14] = compound: C[C@H](C1=CC=C(C=C1)C(=O)NC2=C3C=CNC3=NC=C2)N
How it was run: as §1

[15] = compound: C[C@H](Nc1ncnc2nc[nH]c12)c1cc2cccc(Cl)c2c(=O)n1-c1ccccc1 [duvelisib]
How it was run: as §1

[16] = compound: Cc1cc(Nc2cc(CN3CCOCC3)c3nc(C)c(Cc4ccc(Cl)cc4F)n3n2)n[nH]1 [gandotinib]
How it was run: as §1

[17] = compound: Cc1cc(Nc2cc(N3CCN(C)CC3)nc(Sc3ccc(NC(=O)C4CC4)cc3)n2)n[nH]1 [tozasertib]
How it was run: as §1

[18] = compound: Cc1ccc(-n2nc(C(C)(C)C)cc2NC(=O)Nc2ccc(OCCN3CCOCC3)c3ccccc23)cc1 [doramapimod]
How it was run: as §1

[19] = compound: Cc1ccc(NC(=O)c2ccc(CN3CC[C@H](N(C)C)C3)c(C(F)(F)F)c2)cc1Nc1nccc(-c2cncnc2)n1 [bafetinib]
How it was run: as §1

[20] = compound: Cc1cccc(CC(=O)N2CCc3c2ccc(-c2cn(C)c4ncnc(N)c24)c3F)n1
How it was run: as §1

Measured: log2 fold change

CREG1 (UniProt O75629)
inactive: [1] 0.058 | [2] 0.042 | [3] 0.041 | [4] 0.029 | [5] 0.034 | [6] -0.003 | [7] -0.01 | [8] -0.017 | [9] -0.024 | [10] -0.054 | [11] -0.029 | [12] -0.018 | [13] 0.027 | [14] 0.034 | [15] -0.039 | [16] 0.029 | [17] -0.022 | [18] -0.026 | [19] 0.002 | [20] -0.092

CT47A1 (UniProt Q5JQC4)
inactive: [1] -0.087 | [2] 0.032 | [3] 0.008 | [4] 0.021 | [5] -0.013 | [6] -0.061 | [7] 0.067 | [8] 0.03 | [9] 0.001 | [10] -0.015 | [11] -0.026 | [12] -0.085 | [13] 0.078 | [14] 0.06 | [15] 0.063 | [16] -0.074 | [17] -0.024 | [18] -0.006 | [19] -0.043 | [20] -0.028

CTBS (UniProt Q01459)
inactive: [1] -0.015 | [2] 0.048 | [3] -0.001 | [4] -0.01 | [5] -0.012 | [6] 0.017 | [7] 0.003 | [8] -0.024 | [9] 0.041 | [10] 0.003 | [11] 0.02 | [12] -0.022 | [13] 0.004 | [14] 0.012 | [15] 0.078 | [16] 0.039 | [17] -0.006 | [18] -0.093 | [19] 0.004 | [20] -0.039

CTSB (UniProt P07858)
inactive: [1] 0.004 | [2] 0.001 | [3] -0.034 | [4] 0.023 | [5] -0.049 | [6] -0.025 | [7] 0.072 | [8] -0.029 | [9] 0.024 | [10] 0.001 | [11] -0.004 | [12] -0.034 | [13] -0.022 | [14] -0.05 | [15] 0.009 | [16] 0.025 | [17] 0.009 | [18] -0.057 | [19] -0.05 | [20] 0.015

CYB561A3 isoform 2 (UniProt Q8NBI2)
inactive: [1] -0.112 | [2] 0.011 | [3] -0.042 | [4] -0.028 | [5] -0.002 | [6] -0.034 | [7] 0.025 | [8] -0.034 | [9] 0.072 | [10] 0.015 | [11] 0.032 | [12] -0.11 | [13] -0.097 | [14] -0.36 | [15] 0.083 | [16] 0.22 | [17] -0.03 | [18] 0.026 | [19] -0.03 | [20] 0.243

CUL2 isoform 2 (UniProt Q13617)
inactive: [1] 0.012 | [2] -0.016 | [3] 0.029 | [4] 0.012 | [5] -0.01 | [6] 0.004 | [7] 0.002 | [8] -0.016 | [9] -0.012 | [10] -0.016 | [11] -0.018 | [12] -0.027 | [13] 0.008 | [14] 0.008 | [15] 0.002 | [16] -0.055 | [17] -0.014 | [18] -0.007 | [19] 0.013 | [20] -0.023

CRYZ (UniProt Q08257)
inactive: [1] -0.022 | [2] 0.053 | [3] -0.007 | [4] -0.021 | [5] 0.017 | [6] 0.003 | [7] -0.007 | [8] -0.005 | [9] 0.013 | [10] -0.013 | [11] -0.011 | [12] -0.011 | [13] 0.006 | [14] -0.095 | [15] 0.022 | [16] 0.041 | [17] -0.003 | [18] -0.017 | [19] -0.003 | [20] 0.018

CREBBP (UniProt Q92793)
inactive: [1] 0.018 | [2] -0.009 | [3] -0.017 | [4] 0.025 | [5] -0.01 | [6] 0.053 | [7] -0.004 | [8] -0.045 | [9] -0.107 | [10] 0.041 | [11] 0.014 | [12] 0.003 | [13] -0.005 | [14] 0.026 | [15] -0.02 | [16] -0.022 | [17] 0.029 | [18] 0.007 | [19] -0.01 | [20] -0.042

CRYZL1 (UniProt O95825)
inactive: [1] 0.028 | [2] 0.078 | [3] 0.015 | [4] -0.007 | [5] 0.029 | [6] -0.024 | [7] -0.032 | [8] -0.047 | [9] 0.034 | [10] -0.015 | [11] -0.021 | [12] -0.032 | [13] 0.016 | [14] -0.033 | [15] 0.029 | [16] 0.057 | [17] 0.081 | [18] -0.001 | [19] 0.008 | [20] 0.019

CSPP1 (UniProt Q1MSJ5)
inactive: [1] -0.031 | [2] -0.03 | [3] -0.028 | [4] -0.086 | [5] 0.095 | [6] 0.119 | [7] -0.195 | [8] 0.027 | [9] 0.218 | [10] -0.054 | [11] -0.103 | [12] -0.176 | [13] 0.013 | [14] 0.031 | [15] -0.089 | [16] 0.056 | [17] -0.04 | [18] 0.018 | [19] -0.013 | [20] -0.002

CTBP2 isoform 2 (UniProt P56545)
inactive: [1] 0.01 | [2] -0.048 | [3] 0.034 | [4] -0.016 | [5] -0.017 | [6] -0.072 | [7] 0.019 | [8] 0.055 | [9] 0.001 | [10] 0.004 | [11] -0.031 | [12] -0.014 | [13] -0.029 | [14] -0.012 | [15] -0.09 | [16] -0.012 | [17] 0.016 | [18] 0.065 | [19] 0.014 | [20] 0.011

Quoted at random: 2 entries already listed.
CRYZ (UniProt Q08257)
inactive: [1] -0.022 | [2] 0.053 | [3] -0.007 | [4] -0.021 | [5] 0.017 | [6] 0.003 | [7] -0.007 | [8] -0.005 | [9] 0.013 | [10] -0.013 | [11] -0.011 | [12] -0.011 | [13] 0.006 | [14] -0.095 | [15] 0.022 | [16] 0.041 | [17] -0.003 | [18] -0.017 | [19] -0.003 | [20] 0.018

CTBP2 isoform 2 (UniProt P56545)
inactive: [1] 0.01 | [2] -0.048 | [3] 0.034 | [4] -0.016 | [5] -0.017 | [6] -0.072 | [7] 0.019 | [8] 0.055 | [9] 0.001 | [10] 0.004 | [11] -0.031 | [12] -0.014 | [13] -0.029 | [14] -0.012 | [15] -0.09 | [16] -0.012 | [17] 0.016 | [18] 0.065 | [19] 0.014 | [20] 0.011

Going on with the list.

CYB5R3 isoform 3 (UniProt P00387)
inactive: [1] 0.029 | [2] 0.051 | [3] -0.018 | [4] -0.023 | [5] -0.041 | [6] 0.024 | [7] 0.051 | [8] 0.013 | [9] 0.036 | [10] 0.041 | [11] 0.031 | [12] -0.021 | [13] -0.008 | [14] -0.013 | [15] -0.003 | [16] -0.035 | [17] 0.047 | [18] 0.062 | [19] -0.017 | [20] -0.026

CRTC2 (UniProt Q53ET0)
inactive: [1] 0.041 | [2] -0.041 | [3] 0.049 | [4] -0.107 | [5] 0.019 | [6] 0.07 | [7] 0.012 | [8] 0.065 | [9] -0.023 | [10] -0.008 | [11] 0.136 | [12] -0.015 | [13] -0.042 | [14] -0.062 | [15] -0.012 | [16] 0.029 | [17] -0.068 | [18] -0.029 | [19] 0.02 | [20] 0.102

CTTN (UniProt Q14247)
inactive: [1] 0.059 | [2] -0.019 | [3] 0.034 | [4] 0.105 | [5] 0 | [6] 0.023 | [7] -0.022 | [8] -0.007 | [9] -0.03 | [10] 0.048 | [11] 0.025 | [12] -0.013 | [13] 0.019 | [14] -0.001 | [15] -0.026 | [16] 0.085 | [17] 0.014 | [18] 0.013 | [19] 0.024 | [20] -0.037

CSDE1 isoform 4 (UniProt O75534)
active: [7] 0.209
inactive: [1] 0 | [2] -0.104 | [3] 0.01 | [4] 0 | [5] -0.014 | [6] -0.008 | [8] 0.004 | [9] -0.021 | [10] -0.014 | [11] 0.001 | [12] -0.004 | [13] -0.006 | [14] 0.041 | [15] -0.015 | [16] -0.095 | [17] 0.003 | [18] 0.005 | [19] -0.021 | [20] -0.017

CTH (UniProt P32929)
inactive: [1] -0.002 | [2] 0.037 | [3] -0.009 | [4] -0.022 | [5] 0.019 | [6] -0.029 | [7] 0.001 | [8] -0.021 | [9] 0.012 | [10] -0.012 | [11] 0.014 | [12] 0.013 | [13] -0.002 | [14] -0.05 | [15] 0.017 | [16] 0.054 | [17] 0.001 | [18] 0.025 | [19] 0.068 | [20] 0.002
